Test results: the supplement of paper PMC10849652
The other results are listed elsewhere or left out.

Amino acid sequences for entries named in this document (tags omitted). A change or cut given only in a name is not applied to a line headed by its entry.
UniProt Q9C035: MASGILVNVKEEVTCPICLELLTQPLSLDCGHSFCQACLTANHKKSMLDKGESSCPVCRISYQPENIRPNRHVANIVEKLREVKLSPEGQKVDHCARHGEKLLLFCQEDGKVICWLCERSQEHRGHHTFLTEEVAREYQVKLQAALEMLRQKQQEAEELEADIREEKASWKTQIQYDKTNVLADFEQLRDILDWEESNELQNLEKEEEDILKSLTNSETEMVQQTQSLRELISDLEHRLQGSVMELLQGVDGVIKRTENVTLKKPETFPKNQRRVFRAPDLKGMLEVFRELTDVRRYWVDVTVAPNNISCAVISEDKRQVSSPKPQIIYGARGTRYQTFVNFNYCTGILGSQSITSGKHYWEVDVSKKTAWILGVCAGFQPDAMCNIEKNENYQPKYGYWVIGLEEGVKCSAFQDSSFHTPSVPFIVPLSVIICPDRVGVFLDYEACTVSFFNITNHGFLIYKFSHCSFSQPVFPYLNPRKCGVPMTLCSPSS
UniProt Q9Y296, whole entry, looked up: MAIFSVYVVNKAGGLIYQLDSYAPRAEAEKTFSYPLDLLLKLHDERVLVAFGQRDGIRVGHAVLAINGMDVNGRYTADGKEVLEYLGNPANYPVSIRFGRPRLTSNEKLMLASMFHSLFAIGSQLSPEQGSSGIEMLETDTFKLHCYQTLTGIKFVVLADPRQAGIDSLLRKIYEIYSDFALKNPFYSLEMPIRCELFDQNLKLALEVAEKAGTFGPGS
UniProt Q96DX7: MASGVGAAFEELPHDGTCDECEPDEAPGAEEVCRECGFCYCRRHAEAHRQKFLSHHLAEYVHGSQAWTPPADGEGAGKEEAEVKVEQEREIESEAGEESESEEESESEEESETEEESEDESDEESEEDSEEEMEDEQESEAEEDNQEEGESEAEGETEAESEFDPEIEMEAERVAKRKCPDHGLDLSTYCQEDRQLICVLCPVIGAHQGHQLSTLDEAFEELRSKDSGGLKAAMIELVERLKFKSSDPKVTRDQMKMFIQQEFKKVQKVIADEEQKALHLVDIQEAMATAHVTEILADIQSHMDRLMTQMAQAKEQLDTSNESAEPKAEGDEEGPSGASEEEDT
UniProt Q15645: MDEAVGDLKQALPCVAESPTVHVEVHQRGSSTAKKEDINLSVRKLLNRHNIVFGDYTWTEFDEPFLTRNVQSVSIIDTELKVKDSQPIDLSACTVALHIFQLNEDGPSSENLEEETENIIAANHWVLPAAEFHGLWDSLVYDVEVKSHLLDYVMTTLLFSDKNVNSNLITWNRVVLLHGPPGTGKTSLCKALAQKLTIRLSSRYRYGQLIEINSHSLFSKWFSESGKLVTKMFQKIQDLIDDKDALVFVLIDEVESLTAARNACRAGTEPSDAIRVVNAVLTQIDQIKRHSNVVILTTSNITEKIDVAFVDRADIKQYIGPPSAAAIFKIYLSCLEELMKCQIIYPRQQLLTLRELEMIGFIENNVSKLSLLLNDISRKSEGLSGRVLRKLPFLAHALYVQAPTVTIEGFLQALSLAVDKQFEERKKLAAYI
UniProt Q9BUZ4: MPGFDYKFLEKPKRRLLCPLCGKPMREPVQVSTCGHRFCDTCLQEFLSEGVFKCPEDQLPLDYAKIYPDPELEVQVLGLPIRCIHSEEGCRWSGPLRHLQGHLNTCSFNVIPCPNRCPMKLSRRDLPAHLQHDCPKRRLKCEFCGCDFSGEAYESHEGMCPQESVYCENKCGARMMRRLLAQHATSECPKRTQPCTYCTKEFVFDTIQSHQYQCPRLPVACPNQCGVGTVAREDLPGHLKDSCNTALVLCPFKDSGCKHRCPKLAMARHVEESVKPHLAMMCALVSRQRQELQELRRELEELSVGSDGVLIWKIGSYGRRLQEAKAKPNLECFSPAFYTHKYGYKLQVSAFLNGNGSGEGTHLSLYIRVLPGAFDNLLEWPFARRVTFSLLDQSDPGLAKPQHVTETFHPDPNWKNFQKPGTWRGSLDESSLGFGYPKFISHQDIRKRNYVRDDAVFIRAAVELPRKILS
UniProt Q8NCE0: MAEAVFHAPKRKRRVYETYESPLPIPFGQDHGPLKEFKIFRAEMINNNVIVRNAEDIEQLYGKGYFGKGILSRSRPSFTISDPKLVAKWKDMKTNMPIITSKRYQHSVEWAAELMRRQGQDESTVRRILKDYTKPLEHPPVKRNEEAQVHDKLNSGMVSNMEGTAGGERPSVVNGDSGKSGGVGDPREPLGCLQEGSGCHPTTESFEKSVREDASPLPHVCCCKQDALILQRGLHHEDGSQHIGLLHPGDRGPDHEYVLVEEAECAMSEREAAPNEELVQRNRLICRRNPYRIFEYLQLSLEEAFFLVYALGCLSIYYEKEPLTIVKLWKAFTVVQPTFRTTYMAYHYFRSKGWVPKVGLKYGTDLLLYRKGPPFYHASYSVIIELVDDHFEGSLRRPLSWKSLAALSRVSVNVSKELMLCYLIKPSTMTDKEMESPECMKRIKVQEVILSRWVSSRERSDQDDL
UniProt Q6PJ69: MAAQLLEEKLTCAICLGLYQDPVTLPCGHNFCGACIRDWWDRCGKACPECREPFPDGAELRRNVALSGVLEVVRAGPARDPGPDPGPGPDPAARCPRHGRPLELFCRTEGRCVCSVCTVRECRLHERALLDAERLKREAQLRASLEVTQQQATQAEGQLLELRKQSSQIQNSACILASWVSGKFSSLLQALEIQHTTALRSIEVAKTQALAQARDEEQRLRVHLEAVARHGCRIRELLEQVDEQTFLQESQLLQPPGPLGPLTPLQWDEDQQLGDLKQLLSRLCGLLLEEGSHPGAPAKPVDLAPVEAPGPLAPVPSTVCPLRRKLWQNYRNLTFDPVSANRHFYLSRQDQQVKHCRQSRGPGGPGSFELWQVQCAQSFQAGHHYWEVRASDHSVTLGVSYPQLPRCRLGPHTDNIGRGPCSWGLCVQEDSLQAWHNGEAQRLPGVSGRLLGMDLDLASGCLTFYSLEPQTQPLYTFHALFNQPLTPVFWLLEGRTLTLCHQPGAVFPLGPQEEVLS
UniProt Q12931: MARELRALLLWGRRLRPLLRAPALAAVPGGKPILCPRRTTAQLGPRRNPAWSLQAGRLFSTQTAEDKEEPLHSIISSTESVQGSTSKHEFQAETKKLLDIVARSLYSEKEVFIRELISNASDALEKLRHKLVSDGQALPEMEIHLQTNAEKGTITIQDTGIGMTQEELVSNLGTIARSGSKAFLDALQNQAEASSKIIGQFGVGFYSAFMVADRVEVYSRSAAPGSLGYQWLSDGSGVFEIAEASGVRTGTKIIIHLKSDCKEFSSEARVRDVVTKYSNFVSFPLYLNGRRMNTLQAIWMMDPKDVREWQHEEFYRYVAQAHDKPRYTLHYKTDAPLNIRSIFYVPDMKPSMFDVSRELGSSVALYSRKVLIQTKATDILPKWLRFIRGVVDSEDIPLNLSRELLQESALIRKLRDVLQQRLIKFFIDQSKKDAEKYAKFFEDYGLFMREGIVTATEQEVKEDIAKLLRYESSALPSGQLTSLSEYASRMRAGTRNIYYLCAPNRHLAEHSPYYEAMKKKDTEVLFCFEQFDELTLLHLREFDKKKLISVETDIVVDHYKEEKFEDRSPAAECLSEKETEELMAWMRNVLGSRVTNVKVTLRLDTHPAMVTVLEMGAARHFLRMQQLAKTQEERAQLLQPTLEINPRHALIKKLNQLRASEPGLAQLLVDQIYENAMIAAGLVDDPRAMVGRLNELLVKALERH
UniProt Q8NG11: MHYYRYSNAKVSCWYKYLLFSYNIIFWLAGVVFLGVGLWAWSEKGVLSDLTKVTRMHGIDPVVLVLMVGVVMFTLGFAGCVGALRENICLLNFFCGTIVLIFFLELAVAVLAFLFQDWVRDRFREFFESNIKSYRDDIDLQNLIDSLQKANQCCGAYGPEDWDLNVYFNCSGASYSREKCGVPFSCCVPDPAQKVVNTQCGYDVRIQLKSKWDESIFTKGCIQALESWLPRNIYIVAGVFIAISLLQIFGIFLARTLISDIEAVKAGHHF
UniProt Q15650: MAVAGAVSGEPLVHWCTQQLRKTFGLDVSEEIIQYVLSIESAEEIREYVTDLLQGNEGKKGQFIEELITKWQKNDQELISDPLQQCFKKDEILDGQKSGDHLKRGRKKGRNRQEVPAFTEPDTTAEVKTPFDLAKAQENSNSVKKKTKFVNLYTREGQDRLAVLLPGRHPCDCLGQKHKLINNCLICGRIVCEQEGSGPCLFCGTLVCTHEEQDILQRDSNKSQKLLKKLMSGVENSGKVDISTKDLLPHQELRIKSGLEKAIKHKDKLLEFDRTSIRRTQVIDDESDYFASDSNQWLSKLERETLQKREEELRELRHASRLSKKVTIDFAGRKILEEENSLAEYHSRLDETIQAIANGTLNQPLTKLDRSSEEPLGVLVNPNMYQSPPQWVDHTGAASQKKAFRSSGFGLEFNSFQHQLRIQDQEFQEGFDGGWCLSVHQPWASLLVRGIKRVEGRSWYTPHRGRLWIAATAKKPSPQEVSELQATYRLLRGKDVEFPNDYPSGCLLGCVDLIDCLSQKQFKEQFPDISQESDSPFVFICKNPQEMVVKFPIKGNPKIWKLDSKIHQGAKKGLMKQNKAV
UniProt Q13114: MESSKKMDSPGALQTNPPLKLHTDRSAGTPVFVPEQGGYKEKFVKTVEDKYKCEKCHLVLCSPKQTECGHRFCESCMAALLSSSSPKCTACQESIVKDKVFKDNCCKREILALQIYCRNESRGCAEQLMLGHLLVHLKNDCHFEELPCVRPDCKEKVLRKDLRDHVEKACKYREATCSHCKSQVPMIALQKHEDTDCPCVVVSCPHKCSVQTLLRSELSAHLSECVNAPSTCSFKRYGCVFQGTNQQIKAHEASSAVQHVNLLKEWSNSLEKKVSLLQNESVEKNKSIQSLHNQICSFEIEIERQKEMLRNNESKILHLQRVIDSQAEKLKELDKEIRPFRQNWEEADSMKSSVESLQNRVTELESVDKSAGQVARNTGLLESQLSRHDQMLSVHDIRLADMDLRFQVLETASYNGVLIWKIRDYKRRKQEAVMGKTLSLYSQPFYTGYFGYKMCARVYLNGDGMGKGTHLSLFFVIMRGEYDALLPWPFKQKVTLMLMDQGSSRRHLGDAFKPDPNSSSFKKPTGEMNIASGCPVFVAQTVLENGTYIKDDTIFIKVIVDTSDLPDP
UniProt Q7Z4G4: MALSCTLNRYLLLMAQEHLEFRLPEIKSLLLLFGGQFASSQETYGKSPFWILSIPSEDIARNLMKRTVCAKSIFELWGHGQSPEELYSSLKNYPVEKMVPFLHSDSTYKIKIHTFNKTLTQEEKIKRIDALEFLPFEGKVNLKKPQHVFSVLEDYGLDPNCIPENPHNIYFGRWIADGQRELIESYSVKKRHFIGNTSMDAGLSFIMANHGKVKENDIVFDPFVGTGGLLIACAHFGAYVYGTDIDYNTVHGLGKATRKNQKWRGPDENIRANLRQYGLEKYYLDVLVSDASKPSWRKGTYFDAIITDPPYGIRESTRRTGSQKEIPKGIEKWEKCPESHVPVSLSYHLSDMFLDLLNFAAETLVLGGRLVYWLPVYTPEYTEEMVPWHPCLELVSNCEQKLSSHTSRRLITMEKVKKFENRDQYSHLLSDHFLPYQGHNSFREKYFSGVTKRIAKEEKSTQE
UniProt Q15714: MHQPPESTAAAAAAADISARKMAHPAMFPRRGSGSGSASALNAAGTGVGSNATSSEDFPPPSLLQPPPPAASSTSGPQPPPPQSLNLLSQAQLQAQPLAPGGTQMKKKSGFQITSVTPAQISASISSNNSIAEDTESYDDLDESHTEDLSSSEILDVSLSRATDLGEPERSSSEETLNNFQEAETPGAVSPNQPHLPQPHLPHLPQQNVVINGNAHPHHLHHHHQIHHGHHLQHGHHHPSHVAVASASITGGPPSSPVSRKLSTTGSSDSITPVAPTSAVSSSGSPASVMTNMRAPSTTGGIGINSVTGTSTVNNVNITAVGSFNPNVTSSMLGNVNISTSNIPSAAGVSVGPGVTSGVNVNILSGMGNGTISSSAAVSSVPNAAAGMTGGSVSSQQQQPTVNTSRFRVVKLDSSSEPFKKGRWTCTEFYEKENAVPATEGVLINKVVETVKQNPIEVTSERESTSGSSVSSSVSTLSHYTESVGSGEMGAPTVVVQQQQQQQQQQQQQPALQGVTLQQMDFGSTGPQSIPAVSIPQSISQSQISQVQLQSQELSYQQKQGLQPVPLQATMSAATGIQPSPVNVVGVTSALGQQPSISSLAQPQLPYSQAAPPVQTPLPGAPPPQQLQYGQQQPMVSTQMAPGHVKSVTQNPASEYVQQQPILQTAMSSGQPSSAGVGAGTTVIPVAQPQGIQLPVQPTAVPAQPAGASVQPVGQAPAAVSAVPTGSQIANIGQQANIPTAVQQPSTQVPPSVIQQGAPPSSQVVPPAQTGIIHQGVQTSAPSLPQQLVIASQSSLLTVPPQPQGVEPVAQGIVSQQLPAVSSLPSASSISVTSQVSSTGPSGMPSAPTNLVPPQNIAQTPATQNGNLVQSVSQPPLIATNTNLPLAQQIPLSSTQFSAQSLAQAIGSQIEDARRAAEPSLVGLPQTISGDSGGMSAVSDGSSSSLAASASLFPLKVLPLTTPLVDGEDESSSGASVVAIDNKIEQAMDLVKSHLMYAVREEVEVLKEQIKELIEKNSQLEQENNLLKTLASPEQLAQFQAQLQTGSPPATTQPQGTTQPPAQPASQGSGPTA

Columns and labels:
Assay in all cases: log2 fold change, soluble protein after heating vs DMSO (PISA); higher = thermal stabilisation; K562 lysate, 10 uM; active = over 0.2 and 3.5 SD of the protein, either way, in both replicates (recomputed)
nilotinib = compound: Cc1cn(-c2cc(NC(=O)c3ccc(C)c(Nc4nccc(-c5cccnc5)n4)c3)cc(C(F)(F)F)c2)cn1 [nilotinib]
How it was run: (§1)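 Quantification was by TMTpro 16plex LC-MS/MS with equalised channel sums, applied to the supernatant after 21,000xg for 90 min. Samples were crude K562 extract at 1 mg/mL protein in PBS pH 7.4 with 1 mM MgCl2, treated with 10 μM compound for 30 min, heated for 3 min across 48°C-58°C, pooled and brought to 0.5% NP-40 at 4°C. Values are log-two fold changes in thermal stability relative to solvent controls, from duplicates.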

[1] = compound: Cc1nc(Nc2n[nH]c3c2CN(C(=O)N[C@H](CN(C)C)c2ccccc2)C3(C)C)c2sccc2n1
How it was run: as §1

dasatinib = compound: Cc1nc(Nc2ncc(C(=O)Nc3c(C)cccc3Cl)s2)cc(N2CCN(CCO)CC2)n1 [dasatinib]
How it was run: as §1

[2] = compound: Cc1ncc(-c2ccnc(Nc3ccc(S(C)(=O)=O)cc3)n2)n1C(C)C
How it was run: as §1

[3] = compound: Cn1cc(-c2ccc3c(c2)CCN3C(=O)Cc2cccc(C(F)(F)F)c2)c2c(N)ncnc21
How it was run: as §1

quisinostat = compound: Cn1cc(CNCC2CCN(c3ncc(C(=O)NO)cn3)CC2)c2ccccc21 [quisinostat]
How it was run: as §1

tipifarnib = compound: Cn1cncc1[C@@](N)(c1ccc(Cl)cc1)c1ccc2c(c1)c(-c1cccc(Cl)c1)cc(=O)n2C [tipifarnib]
How it was run: as §1

[4] = compound: NC(=O)Nc1cc(-c2cccc(F)c2)sc1C(=O)N[C@H]1CCCNC1
How it was run: as §1

[5] = compound: NC(=O)c1cnc(N[C@@H]2CCCC[C@@H]2N)nc1Nc1cccc(-n2nccn2)c1
How it was run: as §1

[6] = compound: NC1(c2ccc(-c3nc4ccn5c(=O)[nH]nc5c4cc3-c3ccccc3)cc2)CCC1
How it was run: as §1

Measured: log2 fold change

TRIM5 (UniProt Q9C035)
inactive: nilotinib 0.017 | [1] 0.227 | dasatinib 0.043 | [2] 0.009 | [3] -0.025 | quisinostat -0.052 | tipifarnib -0.093 | [4] 0.054 | [5] -0.141 | [6] 0.036

TRAPPC4 (UniProt Q9Y296)
inactive: nilotinib 0.022 | [1] 0.024 | dasatinib -0.035 | [2] -0.009 | [3] 0.034 | quisinostat -0.046 | tipifarnib -0.018 | [4] 0.001 | [5] 0.009 | [6] 0.015

TRIM44 (UniProt Q96DX7)
inactive: nilotinib -0.016 | [1] 0.001 | dasatinib 0.073 | [2] -0.036 | [3] -0.008 | quisinostat 0.035 | tipifarnib 0.006 | [4] 0.023 | [5] -0.011 | [6] 0.044

TRIM11 (UniProt Q96F44)
inactive: nilotinib -0.019 | [1] 0.053 | dasatinib -0.021 | [2] 0.055 | [3] 0.023 | quisinostat -0.104 | tipifarnib -0.015 | [4] -0.019 | [5] -0.004 | [6] -0.023

TRPM7 (UniProt Q96QT4)
inactive: nilotinib -0.146 | [1] -0.097 | dasatinib 0.022 | [2] -0.001 | [3] 0.056 | quisinostat -0.004 | tipifarnib 0.108 | [4] 0.327 | [5] 0.206

TRIO (UniProt O75962)
inactive: nilotinib -0.028 | [1] -0.038 | dasatinib -0.019 | [2] 0.015 | [3] -0.02 | quisinostat -0.374 | tipifarnib 0.097 | [4] -0.098 | [5] 0.008 | [6] -0.06

TRMT61A (UniProt Q96FX7)
inactive: nilotinib 0.025 | [1] 0.011 | dasatinib 0.028 | [2] -0.008 | [3] 0.005 | quisinostat 0.04 | tipifarnib 0.05 | [4] 0.004 | [5] 0.015 | [6] -0.011

2 records drawn at random from those above, as already listed:
TRIM11 (UniProt Q96F44)
inactive: nilotinib -0.019 | [1] 0.053 | dasatinib -0.021 | [2] 0.055 | [3] 0.023 | quisinostat -0.104 | tipifarnib -0.015 | [4] -0.019 | [5] -0.004 | [6] -0.023

TRPM7 (UniProt Q96QT4)
inactive: nilotinib -0.146 | [1] -0.097 | dasatinib 0.022 | [2] -0.001 | [3] 0.056 | quisinostat -0.004 | tipifarnib 0.108 | [4] 0.327 | [5] 0.206

(list continues)

TRIP13 (UniProt Q15645)
inactive: nilotinib -0.002 | [1] -0.031 | dasatinib 0.003 | [2] 0.049 | [3] 0.046 | quisinostat -0.065 | tipifarnib 0.007 | [4] 0.026 | [5] 0.002 | [6] -0.031

TRAF4 (UniProt Q9BUZ4)
inactive: nilotinib -0.02 | [1] -0.008 | dasatinib -0.031 | [2] 0.022 | [3] -0.035 | quisinostat -0.043 | tipifarnib 0.132 | [4] 0.034 | [5] -0.061 | [6] 0.029

TSEN2 (UniProt Q8NCE0)
inactive: nilotinib -0.003 | [1] -0.035 | dasatinib -0.052 | [2] 0.014 | [3] 0.029 | quisinostat -0.147 | tipifarnib 0.024 | [4] 0.048 | [5] 0.001 | [6] -0.066

TRMT2B (UniProt Q96GJ1)
inactive: nilotinib -0.08 | [1] -0.002 | dasatinib -0.123 | [2] 0.065 | [3] 0.041 | quisinostat 0.017 | tipifarnib 0.039 | [4] -0.004 | [5] -0.012 | [6] 0.018

TROAP (UniProt Q12815)
inactive: nilotinib -0.041 | [1] 0.023 | dasatinib -0.071 | [2] 0.037 | [3] 0.043 | quisinostat -0.096 | tipifarnib -0.005 | [4] 0.007 | [5] 0.031 | [6] -0.018

TRIM65 (UniProt Q6PJ69)
inactive: nilotinib -0.025 | [1] -0.008 | dasatinib -0.059 | [2] -0.021 | [3] 0.005 | quisinostat -0.016 | tipifarnib -0.004 | [4] 0 | [5] 0.08 | [6] -0.017

TTC1 (UniProt Q99614)
inactive: nilotinib 0.004 | [1] -0.011 | dasatinib 0.022 | [2] 0.004 | [3] 0.031 | quisinostat 0.08 | tipifarnib 0.008 | [4] -0.046 | [5] 0.005 | [6] 0.004

TTC19 (UniProt Q6DKK2)
inactive: nilotinib 0.035 | [1] -0.095 | dasatinib 0.006 | [2] 0.001 | [3] 0.02 | quisinostat -0.095 | tipifarnib -0.038 | [4] -0.004 | [5] 0.034 | [6] -0.023

TSSC4 (UniProt Q9Y5U2)
inactive: nilotinib -0.032 | [1] -0.13 | dasatinib 0.129 | [2] 0.034 | [3] -0.115 | quisinostat -0.063 | tipifarnib -0.042 | [4] -0.035 | [5] 0.047 | [6] 0.046

TRIM4 (UniProt Q9C037)
inactive: nilotinib 0.059 | [1] 0.024 | dasatinib -0.142 | [2] -0.027 | [3] -0.052 | quisinostat -0.035 | tipifarnib -0.21 | [4] 0.086 | [5] 0.019 | [6] -0.08

TSEN15 (UniProt Q8WW01)
inactive: nilotinib 0 | [1] 0.048 | dasatinib -0.012 | [2] 0.027 | [3] -0.004 | quisinostat -0.031 | tipifarnib 0.019 | [4] 0.022 | [5] -0.023 | [6] 0.035

TSC1 (UniProt Q92574)
inactive: nilotinib 0.006 | [1] -0.076 | dasatinib -0.003 | [2] 0.06 | [3] 0.065 | quisinostat 0.02 | tipifarnib -0.046 | [4] 0.009 | [5] 0.048 | [6] 0.072

TRAP1 (UniProt Q12931)
inactive: nilotinib 0.019 | [1] -0.007 | dasatinib -0.023 | [2] 0.012 | [3] 0.026 | quisinostat 0.087 | tipifarnib 0.001 | [4] -0.014 | [5] -0.01 | [6] 0.042

TRDMT1 (UniProt O14717)
inactive: nilotinib 0 | [1] 0.019 | dasatinib 0.096 | [2] -0.029 | [3] -0.027 | quisinostat -0.153 | tipifarnib -0.005 | [4] 0.086 | [5] 0.017 | [6] -0.105

TRIM38 (UniProt O00635)
inactive: nilotinib -0.008 | [1] -0.036 | dasatinib -0.084 | [2] 0.027 | [3] 0.056 | quisinostat -0.032 | tipifarnib 0.016 | [4] -0.017 | [5] 0.062 | [6] 0.069

TTC7B isoform 2 (UniProt Q86TV6)
inactive: nilotinib -0.151 | [1] 0.057 | dasatinib -0.063 | [2] 0.028 | [3] 0.023 | quisinostat -0.048 | tipifarnib -0.089 | [4] 0.015 | [5] -0.016 | [6] -0.043

TSPAN14 (UniProt Q8NG11)
inactive: nilotinib 0.034 | [1] 0.01 | dasatinib 0.055 | [2] -0.02 | [3] 0.021 | quisinostat -0.214 | tipifarnib -0.032 | [4] 0.016 | [5] -0.029 | [6] 0.014

TRIP4 (UniProt Q15650)
inactive: nilotinib -0.03 | [1] 0.032 | dasatinib -0.056 | [2] 0.021 | [3] 0.002 | quisinostat -0.038 | tipifarnib 0.012 | [4] 0.004 | [5] 0.002 | [6] -0.057

TRAF3 (UniProt Q13114)
inactive: nilotinib 0.185 | [1] -0.132 | dasatinib -0.092 | [2] 0.024 | [3] -0.025 | quisinostat 0.282 | tipifarnib -0.016 | [4] 0.017 | [5] 0.08 | [6] -0.317

TRMT11 (UniProt Q7Z4G4)
inactive: nilotinib 0.019 | [1] -0.092 | dasatinib 0.002 | [2] -0.041 | [3] -0.002 | quisinostat 0.022 | tipifarnib 0.003 | [4] -0.003 | [5] -0.021 | [6] 0.002

TSC22D1 (UniProt Q15714)
inactive: nilotinib -0.008 | [1] -0.028 | dasatinib 0.018 | [2] 0.024 | [3] 0.026 | quisinostat -0.022 | tipifarnib -0.01 | [4] 0 | [5] -0.024 | [6] 0.013

TSG101 (UniProt Q99816)
inactive: nilotinib 0.013 | [1] -0.018 | dasatinib -0.015 | [2] 0.011 | [3] 0.011 | quisinostat 0.037 | tipifarnib -0.014 | [4] -0.018 | [5] 0.032 | [6] 0.026

TTC27 (UniProt Q6P3X3)
inactive: nilotinib -0.018 | [1] 0.027 | dasatinib -0.009 | [2] -0.031 | [3] 0.01 | quisinostat -0.047 | tipifarnib -0.03 | [4] 0.057 | [5] -0.028 | [6] -0.023
